Source: PubChem BioAssay AID540276 (National Center for Advancing Translational Sciences (NCATS), 2011)
Among all 300,000 compounds or so, about 5,400 (1.8%) were called active. Inconclusive means that the source gave no clear call. Such entries were picked first, then a sample of the others. Calls come from the whole dose curve; tested in HEK293 cells. A potency beside an inconclusive call is a rough fit, not a confirmed value.
Potency is the fitted concentration of half-maximal effect.

Assay: qHTS for inhibitors of binding or entry into cells for Marburg Virus
Conditions: Marburg virus pseudotyped entry inhibition, cell reporter; series mostly up to 37.8 µM
In the case of CCCc1cc(=O)n2[nH]c(-c3cccc(Br)c3)cc2n1, the Potency is reported as “inactive”. For O=[N+]([O-])c1ccc(NN=Cc2ccc(O)cc2)nc1, the Potency was inconclusive: 3.16 µM [inhibitor, partial curve, poor fit]. With Cc1ccc(N2C(=O)C3C4C=CC(CNC(=S)Nc5cccc(Cl)c5)(O4)C3C2=O)cc1 (stereo not given) the Potency was inconclusive: 35.5 µM [inhibitor, single point]. With O=S(=O)(c1ccccc1)c1nc(Nc2ccccc2N2CCOCC2)sc1Cl the Potency was inconclusive: 14.6 µM [inhibitor, single point]. In the case of Cc1c2ccccc2nc2ccccc12, the Potency is reported as “inactive”. With COc1ccccc1NC(=O)CSc1nnnn1-c1ccc2c(c1)OCO2 the Potency was inconclusive: 18.3 µM [activator, single point]. With CCc1ccc2nc(NC(=O)CN3C(=O)NC4(CCCC4)C3=O)sc2c1 the Potency was inconclusive: 35.5 µM [inhibitor, partial curve, poor fit]. In the case of Cc1ccc(-c2cc(C(=O)N/N=C/c3c[nH]c4ccccc34)n[nH]2)o1, the Potency is reported as “inactive”. In the case of CCn1cc(C(=O)NC[C@H]2CCCO2)c(=O)c2cc(F)c(N3CCN(C)CC3)cc21, the Potency is reported as “inactive”. In the case of Cc1cc(N2CCC(C)CC2)nc(NCc2ccccc2)n1, the Potency is reported as inconclusive: 5.8 µM [inhibitor, full curve, poor fit]. With COCCNC(=O)C1=C(N)C(C(=O)Nc2ccc(C)c(S(=O)(=O)N3CCCCC3)c2)SC1=Nc1ccc(C)cc1C (stereo not given) the Potency was inconclusive: 25.9 µM [inhibitor, partial curve, poor fit]. For CCC(=O)N1CCc2cc(Br)cc(S(=O)(=O)N3CCC(C(=O)NC(C)(C)C)CC3)c21, the Potency was “inactive”. For CCOc1ccccc1C(=O)NCC(=O)OCC(=O)N1CCCC1, the Potency was inconclusive: 0.126 µM [inhibitor, full curve, poor fit]. In the case of COc1ccc(S(=O)(=O)N/N=C\c2ccc3c(c2)OCO3)c(OC)c1, the Potency is reported as inconclusive: 7.94 µM [inhibitor, partial curve, poor fit]. In the case of Cc1ccc(OCCSc2nc3ccccc3n2CC(=O)N2CCOCC2)c(C)c1, the Potency is reported as “inactive”. In the case of O=C(c1cnn2c(C(F)F)cc(C3CC3)nc12)N1CCc2ccccc2C1, the Potency is reported as inconclusive: 35.5 µM [inhibitor, single point]. With Cc1cc(C(=O)CSc2nncs2)c(C)n1-c1ccc2c(c1)OCO2 the Potency was “inactive”. For Cc1n[nH]c(C)c1CCc1nc2c3ccccc3nc(SCC(=O)Nc3ccccc3F)n2n1, the Potency was inconclusive: 7.94 µM [inhibitor, partial curve, poor fit]. With O=S1(=O)N=C(N/N=C/c2cccs2)c2ccccc21 the Potency was “inactive”. With Cc1cc(-c2n[nH]c(=S)n2-c2ccccc2)nn1C the Potency was inconclusive: 14.1 µM [activator, single point]. For CCN(CC)CCC#CC(O)(c1ccccc1)C1CCCCC1 (stereo not given), the Potency was inconclusive: 12.6 µM [inhibitor, partial curve, poor fit]. With COc1ccc(C(=O)N2CCc3ccccc32)cc1S(=O)(=O)N1CCOCC1 the Potency was inconclusive: 5.62 µM [activator, partial curve, poor fit]. With O=C(COC(=O)c1cccc(Br)c1)Nc1ccc2[nH]c(=O)[nH]c2c1 the Potency was inconclusive: 1.26 µM [inhibitor, single point]. In the case of COc1ccc(CNc2nc3c(c(=O)n(Cc4ccc(Cl)cc4)c(=O)n3C)n2C)cc1, the Potency is reported as inconclusive: 13 µM [inhibitor, partial curve, poor fit]. For CN(N=Nc1ccc([N+](=O)[O-])cc1)c1ccccc1, the Potency was inconclusive: 29.1 µM [activator, single point]. In the case of CC1=C/C(=C\c2ccc(Br)o2)C(=O)O1, the Potency is reported as “inactive”. In the case of Nc1ncc(P(=S)(N2CCOCC2)N2CCOCC2)s1, the Potency is reported as “inactive”. With O=C(NCCN1CCc2ccccc2C1)Nc1ccc(F)cc1 the Potency was “inactive”. For COc1cc(/C=C2\C(=O)ON=C2c2ccccc2)cc(OC)c1OC, the Potency was “inactive”. In the case of Cc1nc(-c2ccc([N+](=O)[O-])cc2)c(-c2ccccc2)o1, the Potency is reported as “inactive”. For Cc1[nH]c(=O)c(C(=O)c2ccccc2O)cc1C(=O)O, the Potency was inconclusive: 29.1 µM [activator, single point]. For c1ccc(-n2cnc3cc(NCc4ccco4)ccc32)cc1, the Potency was “inactive”. For CCn1c(SCc2ccc(C(=O)Nc3cc(C)cc(C)c3)cc2)nnc1-c1ccncc1, the Potency was inconclusive: 35.5 µM [inhibitor, single point]. For Cc1cccc(-c2nc3c(C#N)c[nH]n3c2NC2CCCCC2)c1, the Potency was “inactive”. With O=C(Nc1nc2ccc(F)cc2s1)C1CCN(S(=O)(=O)c2cc([N+](=O)[O-])ccc2Cl)CC1 the Potency was inconclusive: 6.51 µM [inhibitor, partial curve, poor fit]. For Cc1ccc(-n2cccn2)c(CN2CCCC(C(=O)c3sccc3C)C2)c1 (stereo not given), the Potency was inconclusive: 10 µM [inhibitor, partial curve, poor fit]. For CC(C)NCC(O)c1ccc(NS(C)(=O)=O)cc1 (stereo not given), the Potency was “inactive”. In the case of Cc1cc2c(ncn2Cc2ccccc2)c([N+](=O)[O-])c1C, the Potency is reported as inconclusive: 23.1 µM [activator, single point]. For CCCCCc1ccc(OCCC[n+]2ccccc2)c(CCCCC)c1, the Potency was active: 7.08 µM. With CC(C)CN(C(=O)CSc1nc2ccccc2o1)c1c(N)n(Cc2ccccc2)c(=O)[nH]c1=O the Potency was inconclusive: 2 µM [inhibitor, partial curve, poor fit]. In the case of O=c1c2ccccc2nc2ccc(N3CCOCC3)nn12, the Potency is reported as inconclusive: 0.73 µM [activator, partial curve]. With COc1cccc(-c2nnc3n(Cc4ccc(F)cc4)c(=O)c4ccccc4n23)c1 the Potency was “inactive”. For C[n+]1cccc(C2C(C#N)=C(N)Oc3c2ccc2ccccc32)c1 (stereo not given), the Potency was inconclusive: 22.4 µM [inhibitor, single point]. In the case of CCC(Oc1ccccc1F)C(=O)Nc1c(C(=O)c2ccccc2)oc2ccccc12 (stereo not given), the Potency is reported as inconclusive: 11.2 µM [inhibitor, partial curve, poor fit]. With O=S(=O)(c1ccccc1)N1CCN(c2ncnc3sc(-c4ccccc4)cc23)CC1 the Potency was inconclusive: 18.3 µM [inhibitor, single point]. For O=C(Cc1ccccc1[N+](=O)[O-])Nc1ccc2c(c1)OCO2, the Potency was inconclusive: 5.62 µM [activator, single point]. With COc1cccc(N2CCN(C(=O)c3ccc(CSc4nc5ccncc5[nH]4)cc3)CC2)c1 the Potency was “inactive”. With CCOCC(=O)Nc1nnc(COC)s1 the Potency was “inactive”. In the case of Cc1csc(NC(=O)c2oc3ccccc3c2C)n1, the Potency is reported as inconclusive: 35.5 µM [inhibitor, partial curve, poor fit]. In the case of Cc1ccc(-c2c[n+](Cc3cccc(Cl)c3)c3n2CCC3)cc1, the Potency is reported as inconclusive: 3.98 µM [inhibitor, single point]. In the case of Cc1cc(S(=O)(=O)NC2CC(C)(C)NC(C)(C)C2)c(Cl)cc1Cl, the Potency is reported as inconclusive: 35.5 µM [inhibitor, single point]. For Cc1ccc(NCC(=O)N/N=C/c2ccc(-c3cccc(C(F)(F)F)c3)o2)cc1, the Potency was “inactive”. In the case of CCCc1nnc(NC(=O)CCC(=O)NCCc2ccc(OC)c(OC)c2)s1, the Potency is reported as inconclusive: 12.6 µM [activator, partial curve, poor fit]. For CCOC(=O)Cc1csc(NC(=O)c2csc3c2CCCC3)n1, the Potency was inconclusive: 0.58 µM [inhibitor, single point]. For Cc1cc(C)c(/C=C(\C#N)C(N)=S)c(C)c1, the Potency was inconclusive: 0.092 µM [activator, full curve, poor fit]. In the case of CCn1c(SCc2ccccc2)nc2cc(S(N)(=O)=O)ccc21, the Potency is reported as inconclusive: 3.98 µM [inhibitor, partial curve, poor fit]. With CC1=C(C)C(=O)C(CCCCC#CCCCC#CCO)=C(C)C1=O the Potency was inconclusive: 0.708 µM [inhibitor, full curve, poor fit]. With O=[N+]([O-])c1ccc(N=NNc2ccc([N+](=O)[O-])cc2)cc1 the Potency was inconclusive: 0.562 µM [activator, full curve, poor fit]. In the case of O=C(NCCNC(=O)c1ccccn1)c1ccc(Cl)cc1, the Potency is reported as “inactive”. With Clc1ccc(CNc2cnccn2)cc1 the Potency was “inactive”. In the case of COc1ccc(CC(=O)OCC(=O)N(C)C2CCS(=O)(=O)C2)cc1OC (stereo not given), the Potency is reported as inconclusive: 35.5 µM [activator, single point]. For Cc1ccc(NC(=O)c2nnn(-c3cc(C)cc(C)c3)c2N)cc1, the Potency was inconclusive: 29.1 µM [inhibitor, single point]. In the case of CCc1ccc(-n2c(C)nnc2SCc2nc(-c3ccc(OC)cc3)no2)cc1, the Potency is reported as “inactive”. In the case of Cc1ccc(O)c(-c2cc(C(=O)Nc3ccc(S(=O)(=O)Nc4nc(C)cc(C)n4)cc3)[nH]n2)c1, the Potency is reported as inconclusive: 22.4 µM [inhibitor, single point]. For CC(Sc1ccc2c(c1)OCCO2)C(=O)Nc1ncc(Cl)cc1Cl (stereo not given), the Potency was “inactive”. With Cc1ccc(CC2CC(=O)N(Cc3ccco3)C2=O)cc1 (stereo not given) the Potency was “inactive”. For Cc1ccc(-c2cc3ncc(C(=O)c4cc([N+](=O)[O-])ccc4O)cn3n2)cc1, the Potency was “inactive”. For COc1cccc(/C=C/C(=O)N(C)CC(=O)Nc2ccc(Cl)c(C(F)(F)F)c2)c1, the Potency was inconclusive: 0.631 µM [inhibitor, single point]. For O=C(CC1S/C(=N/N=C/c2c[nH]c3ccc(OCc4ccccc4)cc23)NC1=O)Nc1ccccc1 (stereo not given), the Potency was “inactive”. For Cc1ccc(NC(=O)COC(=O)C2COc3ccccc3O2)cc1S(=O)(=O)N1CCOCC1 (stereo not given), the Potency was inconclusive: 20.6 µM [activator, partial curve, poor fit].
